The target in test [1] is GST-bZIP72 (rice (Oryza sativa L. ssp. japonica cv Nipponbare)). As to the kind of experiment: pull-down; GST fusion on glutathione high-capacity magnetic agarose beads; 50 mM Tris-HCl pH 7.5, 5% glycerol, 1 mM EDTA, 1 mM DTT, 1 mM PMSF, 0.01% Nonidet P-40, 150 mM KCl; 4°C, 2 h; blots with anti-His and anti-GST; both purified.
The target in test [2] is bZIP72 fused to the GAL4-binding domain (rice (Oryza sativa L. ssp. japonica cv Nipponbare)). As to the kind of experiment: two-hybrid; Matchmaker GAL4 two-hybrid system, constructs cotransformed into yeast strain Y2H Gold, selected on medium lacking Leu, Trp and His with 0.04 mg/ml X-alpha-Gal and 100 ng/ml Aureobasidin A.
In test [3] the target is bZIP72-FLAG (rice (Oryza sativa L. ssp. japonica cv Nipponbare)). Briefly: co-IP; bZIP72-FLAG coexpressed with SAPK10-GFP or empty GFP in tobacco leaves; extract on anti-FLAG M2 magnetic beads, 4°C, 2 h; blots with anti-GFP and anti-FLAG.

For 5 molecules, binding results are on record in publication PMC7689938, “Abscisic acid promotes jasmonic acid biosynthesis via a ‘SAPK10‐bZIP72‐AOC’ pathway to synergistically inhibit seed germination in rice (Oryza sativa)” (The New Phytologist, 2020).

Results are given in words; binding and its absence hold for the method and conditions named. A result given as binding can be weak or reduced; the word gives no strength. Sequences can lack the tags named with a protein. For some assays here: Binding seen in cells or lysates may run through a third protein.

B1: His-SAPK10 (enzyme, UniProt Q75H77 1-362, looked up)
chain: MDRAALTVGPGMDMPIMHDGDRYELVRDIGSGNFGVARLMRSRADGQLVAVKYIERGDKIDENVQREIINHRSLRHPNIIRFKEVILTPTHLAIVMEYASGGELFERICNAGRFSEDEARFFFQQLISGVSYCHSMQVCHRDLKLENTLLDGSTAPRLKICDFGYSKSSVLHSQPKSTVGTPAYIAPEVLLKKEYDGKIADVWSCGVTLYVMLVGAYPFEDPDEPKNFRKTIQRILGVQYSIPDYVHISPECRDLIARIFVANPATRISIPEIRNHPWFLKNLPADLMDDSKMSSQYEEPEQPMQSMDEIMQILAEATIPAAGSGGINQFLNDGLDLDDDMEDLDSDPDLDVESSGEIVYAM
notes: SAPK10 (SnRK2 type kinase), rice; full-length CDS in pET28a; source: Transetta (DE3) cells, purified (6 x His-Tagged Protein Purification Kit)
With B1, the binding entry in test [1] is reported as “binds”.

B2: SAPK10^S177A fused to the GAL4 activation domain (enzyme, UniProt Q75H77 1-362)
chain: MDRAALTVGPGMDMPIMHDGDRYELVRDIGSGNFGVARLMRSRADGQLVAVKYIERGDKIDENVQREIINHRSLRHPNIIRFKEVILTPTHLAIVMEYASGGELFERICNAGRFSEDEARFFFQQLISGVSYCHSMQVCHRDLKLENTLLDGSTAPRLKICDFGYSKSSVLHSQPKATVGTPAYIAPEVLLKKEYDGKIADVWSCGVTLYVMLVGAYPFEDPDEPKNFRKTIQRILGVQYSIPDYVHISPECRDLIARIFVANPATRISIPEIRNHPWFLKNLPADLMDDSKMSSQYEEPEQPMQSMDEIMQILAEATIPAAGSGGINQFLNDGLDLDDDMEDLDSDPDLDVESSGEIVYAM
Regarding B2, in test [2], the binding result is recorded as “binds”.

B3: SAPK10-GFP (enzyme, UniProt Q75H77 1-362)
chain: MDRAALTVGPGMDMPIMHDGDRYELVRDIGSGNFGVARLMRSRADGQLVAVKYIERGDKIDENVQREIINHRSLRHPNIIRFKEVILTPTHLAIVMEYASGGELFERICNAGRFSEDEARFFFQQLISGVSYCHSMQVCHRDLKLENTLLDGSTAPRLKICDFGYSKSSVLHSQPKSTVGTPAYIAPEVLLKKEYDGKIADVWSCGVTLYVMLVGAYPFEDPDEPKNFRKTIQRILGVQYSIPDYVHISPECRDLIARIFVANPATRISIPEIRNHPWFLKNLPADLMDDSKMSSQYEEPEQPMQSMDEIMQILAEATIPAAGSGGINQFLNDGLDLDDDMEDLDSDPDLDVESSGEIVYAM
As to B3, in test [3], the binding result is “binds”.

B4: SAPK10 fused to the GAL4 activation domain (enzyme, UniProt Q75H77 1-362)
chain: MDRAALTVGPGMDMPIMHDGDRYELVRDIGSGNFGVARLMRSRADGQLVAVKYIERGDKIDENVQREIINHRSLRHPNIIRFKEVILTPTHLAIVMEYASGGELFERICNAGRFSEDEARFFFQQLISGVSYCHSMQVCHRDLKLENTLLDGSTAPRLKICDFGYSKSSVLHSQPKSTVGTPAYIAPEVLLKKEYDGKIADVWSCGVTLYVMLVGAYPFEDPDEPKNFRKTIQRILGVQYSIPDYVHISPECRDLIARIFVANPATRISIPEIRNHPWFLKNLPADLMDDSKMSSQYEEPEQPMQSMDEIMQILAEATIPAAGSGGINQFLNDGLDLDDDMEDLDSDPDLDVESSGEIVYAM
Take B4: the binding result in test [2] is reported as “binds”.

B5: His-SAPK10^S177A (enzyme, UniProt Q75H77 1-362, looked up)
chain: MDRAALTVGPGMDMPIMHDGDRYELVRDIGSGNFGVARLMRSRADGQLVAVKYIERGDKIDENVQREIINHRSLRHPNIIRFKEVILTPTHLAIVMEYASGGELFERICNAGRFSEDEARFFFQQLISGVSYCHSMQVCHRDLKLENTLLDGSTAPRLKICDFGYSKSSVLHSQPKATVGTPAYIAPEVLLKKEYDGKIADVWSCGVTLYVMLVGAYPFEDPDEPKNFRKTIQRILGVQYSIPDYVHISPECRDLIARIFVANPATRISIPEIRNHPWFLKNLPADLMDDSKMSSQYEEPEQPMQSMDEIMQILAEATIPAAGSGGINQFLNDGLDLDDDMEDLDSDPDLDVESSGEIVYAM
notes: SAPK10, rice, Ser177 replaced by alanine; full-length CDS in pET28a; source: Transetta (DE3) cells, purified (6 x His-Tagged Protein Purification Kit)
Regarding B5, the binding entry in test [1] is listed as “binds”.
